Structures can show the parent of a compound that is named as a salt. ± gives the standard deviation of the averaged measurements. This is one part of the list. These are raw signals, not scaled to a control.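 Ribosome-assembly readouts in HeLa cells were imaged via ENP1 staining, with or without export block, or inducible tagged ribosomal protein reporters. Machine learning classified per-cell signal location versus solvent (DMSO) controls. Hits surpassed the DMSO false-positive mean by five standard deviations and were visually confirmed; three biological replicates.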

The subject of this experiment is HeLa RPL29-GFP reporter. Put plainly: fraction of reporter-positive cells with nuclear (nucleolar or nucleolar/nucleoplasmic) RPL29-GFP (MainHitrate); higher = more cells with nucleolar/nuclear readout signal (for ENP1 -LMB: less RNAPI inhibition; for +LMB ENP1 and RP reporters: stronger nuclear/nucleolar retention, i.e. ribosome biogenesis defect). The note with it: concentration: 1 µM; treatment time: 6 h.
As for `CCS(=O)(=O)CCn1c([N+](=O)[O-])cnc1C` [tinidazole], the “fraction of reporter-positive cells with nuclear” value (from here on “fraction”) came out at 0.219 ± 0.083.
Then `CCc1c2c(nc3ccc(OC(=O)N4CCC(N5CCCCC5)CC4)cc13)-c1cc3c(c(=O)n1C2)COC(=O)[C@]3(O)CC` [Irinotecan], with 0.204 ± 0.069.
Consider `C=C1/C(=C\C=C2/CCC[C@]3(C)[C@@H]([C@H](C)/C=C/[C@H](C)C(C)C)CC[C@@H]23)C[C@@H](O)C[C@@H]1O` [Doxercalciferol (Hectorol)], for which the “fraction” value turned out to be 0.208 ± 0.045.
Regarding `C#C[C@]1(O)CC[C@H]2[C@@H]3CCC4=CC(=O)CC[C@@H]4[C@H]3CC[C@@]21CC` [Levonorgestrel (Levonelle)], the “fraction” value worked out at 0.211 ± 0.06.
Then `CC1(C)[C@@H](O[C@H]2O[C@H](C(=O)O)[C@@H](O)[C@H](O)[C@H]2O[C@@H]2O[C@H](C(=O)O)[C@@H](O)[C@H](O)[C@H]2O)CC[C@]2(C)[C@H]3C(=O)C=C4[C@@H]5C[C@@](C)(C(=O)O)CC[C@]5(C)CC[C@@]4(C)[C@]3(C)CC[C@@H]12` [Ammonium Glycyrrhizinate (AMGZ)], with 0.225 ± 0.086.
Then `CC(=O)O[C@H]1CC[C@@]2(C)C(=CC[C@@H]3[C@@H]2CC[C@]2(C)C(c4cccnc4)=CC[C@@H]32)C1` [Abiraterone Acetate (CB7630)], with 0.217 ± 0.061.
Then `Cc1onc(-c2ccccc2Cl)c1C(=O)N[C@@H]1C(=O)N2[C@@H]1SC(C)(C)[C@@H]2C(=O)O` [Cloxacillin sodium (Cloxacap)], with 0.212 ± 0.054.
In the case of `CCCCOc1ccc(CC(=O)NO)cc1` [Bufexamac], the “fraction” value is 0.228 ± 0.07.
The figure for `COc1cc2nccc(Oc3ccc(NC(=O)C4(C(=O)Nc5ccc(F)cc5)CC4)cc3)c2cc1OC` [XL-184 (Cabozantinib)] is 0.239 ± 0.083; for `CCCCCCCCCCCCCCCCO` [1-Hexadecanol] it is 0.219 ± 0.08.
Then `Nc1nc(=O)[nH]cc1F` [Flucytosine (Ancobon)], with 0.211 ± 0.034; and `N=C(N)NC(=O)c1nc(Cl)c(N)nc1N` [Amiloride hydrochloride dihydrate], with 0.223 ± 0.12.
As to `NC(CO)C(=O)NNCc1ccc(O)c(O)c1O` (stereo not drawn) [Benserazide], the “fraction” value amounted to 0.209 ± 0.072.
The figure for `CCC(=O)NCC[C@@H]1CCc2ccc3c(c21)CCO3` [Ramelteon (TAK-375)] is 0.201 ± 0.062; for `COc1cccc2c1C(=O)c1c(O)c3c(c(O)c1C2=O)C[C@@](O)(C(=O)CO)C[C@@H]3O[C@H]1C[C@H](N)[C@@H](O)[C@H](C)O1` [Epirubicin Hydrochloride] it is 0.731 ± 0.44.
The figure for `CN(C)[C@@H]1C(O)=C(C(N)=O)C(=O)[C@@]2(O)C(O)=C3C(=O)c4c(O)cccc4[C@@](C)(O)[C@H]3[C@H](O)[C@@H]12` [Oxytetracycline dihydrate] is 0.219 ± 0.065; for `C#CCN[C@@H]1CCc2ccccc21` [Rasagiline mesylate] it is 0.239 ± 0.072.
As for `CN1CCC(=C2c3ccccc3CCc3sccc32)CC1` [Pizotifen malate], the “fraction” value was 0.199 ± 0.085.
The figure for `Cc1cc2c(s1)Nc1ccccc1N=C2N1CCN(C)CC1` [Olanzapine (Zyprexa)] is 0.216 ± 0.071; for `NC(=O)c1ncn([C@@H]2O[C@H](CO)[C@@H](O)[C@H]2O)c1N` [Acadesine] it is 0.258 ± 0.079; for `COC(=O)/C=C/C(=O)OC` [Dimethyl Fumarate] it is 0.189 ± 0.032.
Then `COc1ccc2cc1Oc1ccc(cc1)C[C@H]1c3c(cc4c(c3Oc3cc5c(cc3OC)CCN(C)[C@@H]5C2)OCO4)CCN1C` [Cepharanthine], with 0.22 ± 0.072; and `Cc1ccc(Nc2nccc(N(C)c3ccc4c(C)n(C)nc4c3)n2)cc1S(N)(=O)=O` [Pazopanib], with 0.227 ± 0.053.
Take `Cc1nnc(C(C)C)n1C1C[C@H]2CC[C@@H](C1)N2CC[C@H](NC(=O)C1CCC(F)(F)CC1)c1ccccc1` (stereo in doubt) [Maraviroc]: the “fraction” value amounted to 0.222 ± 0.11.
The figure for `O=C([O-])C(O)[C@H](O)[C@@H](O)[C@H](O)[C@H](O)CO.O=C([O-])C(O)[C@H](O)[C@@H](O)[C@H](O)[C@H](O)CO.[Ca+2]` (stereo partly drawn) [Calcium Gluceptate] is 0.289 ± 0.21.
In the case of `CC(C)OC(=O)C(C(=O)OC(C)C)=C1SC=CS1` [Malotilate], the “fraction” value was 0.211 ± 0.057.
In the case of `CN(Cc1cnc2nc(N)nc(N)c2n1)c1ccc(C(=O)N[C@@H](CCC(=O)O)C(=O)O)cc1` [Abitrexate (Methotrexate)], the “fraction” value is 0.191 ± 0.08.
The figure for `CC(=O)OCC(=O)[C@@]1(O)[C@H](C)C[C@H]2[C@@H]3CCC4=CC(=O)C=C[C@]4(C)[C@@]3(F)[C@@H](O)C[C@@]21C` [Dexamethasone acetate] is 0.279 ± 0.14.

These data come from the supplement of paper PMC12542422.
